Data as given in the supplement of paper PMC10849652.
The list shows a part of the results.

Protein sequences, listed by entry. Tags and fused reporters are not part of them. Lines headed by an entry give the natural chain unless they say otherwise; changes in a name come on top.
UniProt P55058, whole entry, looked up: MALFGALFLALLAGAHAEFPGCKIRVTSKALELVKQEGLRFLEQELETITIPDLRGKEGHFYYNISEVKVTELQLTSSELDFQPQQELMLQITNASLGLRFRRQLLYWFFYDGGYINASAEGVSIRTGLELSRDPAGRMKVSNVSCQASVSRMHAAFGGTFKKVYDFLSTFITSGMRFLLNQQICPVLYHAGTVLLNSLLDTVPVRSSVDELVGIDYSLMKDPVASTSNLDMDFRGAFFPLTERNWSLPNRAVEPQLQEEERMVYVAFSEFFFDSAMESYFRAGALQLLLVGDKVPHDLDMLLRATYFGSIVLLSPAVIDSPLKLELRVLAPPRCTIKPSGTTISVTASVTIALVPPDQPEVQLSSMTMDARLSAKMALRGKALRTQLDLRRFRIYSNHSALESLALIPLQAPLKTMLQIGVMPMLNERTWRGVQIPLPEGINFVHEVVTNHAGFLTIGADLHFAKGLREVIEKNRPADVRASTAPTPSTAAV
UniProt Q86V59: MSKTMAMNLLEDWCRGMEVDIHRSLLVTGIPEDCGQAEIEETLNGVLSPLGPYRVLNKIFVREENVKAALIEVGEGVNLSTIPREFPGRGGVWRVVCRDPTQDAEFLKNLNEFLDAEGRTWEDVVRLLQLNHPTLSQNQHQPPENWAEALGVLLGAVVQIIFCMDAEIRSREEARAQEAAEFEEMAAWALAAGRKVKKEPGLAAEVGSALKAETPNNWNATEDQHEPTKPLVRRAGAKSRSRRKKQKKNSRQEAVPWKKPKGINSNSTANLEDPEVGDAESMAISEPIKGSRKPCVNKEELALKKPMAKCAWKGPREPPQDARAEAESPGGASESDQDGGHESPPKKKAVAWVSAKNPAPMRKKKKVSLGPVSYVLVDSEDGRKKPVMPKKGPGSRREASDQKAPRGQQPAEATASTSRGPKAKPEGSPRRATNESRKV
UniProt Q68D20: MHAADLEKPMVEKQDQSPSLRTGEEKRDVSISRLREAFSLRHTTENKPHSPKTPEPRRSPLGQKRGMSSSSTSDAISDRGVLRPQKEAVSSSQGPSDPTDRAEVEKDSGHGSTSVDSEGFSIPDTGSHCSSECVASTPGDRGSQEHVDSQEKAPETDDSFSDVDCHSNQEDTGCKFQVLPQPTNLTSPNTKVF
UniProt Q8NEY8: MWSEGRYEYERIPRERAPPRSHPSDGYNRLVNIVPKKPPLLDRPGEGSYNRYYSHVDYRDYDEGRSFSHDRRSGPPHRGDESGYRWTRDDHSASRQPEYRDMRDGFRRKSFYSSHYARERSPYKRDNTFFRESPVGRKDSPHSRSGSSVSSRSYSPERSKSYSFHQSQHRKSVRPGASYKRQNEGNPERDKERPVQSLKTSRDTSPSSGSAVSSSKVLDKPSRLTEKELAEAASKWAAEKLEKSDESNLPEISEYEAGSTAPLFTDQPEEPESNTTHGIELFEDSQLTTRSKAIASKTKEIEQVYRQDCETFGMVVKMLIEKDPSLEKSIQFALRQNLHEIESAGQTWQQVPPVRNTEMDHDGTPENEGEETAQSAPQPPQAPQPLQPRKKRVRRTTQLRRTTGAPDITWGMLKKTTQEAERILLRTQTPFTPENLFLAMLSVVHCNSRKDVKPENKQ
UniProt Q86W92: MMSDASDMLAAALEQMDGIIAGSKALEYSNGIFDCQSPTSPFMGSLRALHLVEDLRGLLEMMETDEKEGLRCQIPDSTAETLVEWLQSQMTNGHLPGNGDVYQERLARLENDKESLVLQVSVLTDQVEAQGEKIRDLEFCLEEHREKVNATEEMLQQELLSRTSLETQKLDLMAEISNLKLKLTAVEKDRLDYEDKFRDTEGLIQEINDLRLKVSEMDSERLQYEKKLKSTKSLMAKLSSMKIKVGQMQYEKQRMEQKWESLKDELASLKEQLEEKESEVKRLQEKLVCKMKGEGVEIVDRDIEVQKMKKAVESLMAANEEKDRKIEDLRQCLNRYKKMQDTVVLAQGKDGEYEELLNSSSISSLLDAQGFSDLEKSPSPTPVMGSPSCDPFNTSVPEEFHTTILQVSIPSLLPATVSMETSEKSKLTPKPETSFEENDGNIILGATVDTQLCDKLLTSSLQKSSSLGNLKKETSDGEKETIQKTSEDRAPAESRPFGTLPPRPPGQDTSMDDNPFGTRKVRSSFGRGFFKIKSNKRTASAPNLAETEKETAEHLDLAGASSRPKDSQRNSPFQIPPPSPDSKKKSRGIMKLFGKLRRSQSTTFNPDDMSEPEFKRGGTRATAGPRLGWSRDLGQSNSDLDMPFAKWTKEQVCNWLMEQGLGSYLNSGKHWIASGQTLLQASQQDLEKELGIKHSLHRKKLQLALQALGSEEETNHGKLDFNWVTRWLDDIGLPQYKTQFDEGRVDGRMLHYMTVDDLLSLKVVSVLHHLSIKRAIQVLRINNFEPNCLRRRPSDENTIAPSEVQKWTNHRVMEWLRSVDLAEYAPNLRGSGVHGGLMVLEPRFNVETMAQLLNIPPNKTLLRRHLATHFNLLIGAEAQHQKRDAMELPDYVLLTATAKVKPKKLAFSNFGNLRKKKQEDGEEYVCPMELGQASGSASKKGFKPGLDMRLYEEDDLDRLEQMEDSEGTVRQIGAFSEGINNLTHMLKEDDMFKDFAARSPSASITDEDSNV
UniProt O00592: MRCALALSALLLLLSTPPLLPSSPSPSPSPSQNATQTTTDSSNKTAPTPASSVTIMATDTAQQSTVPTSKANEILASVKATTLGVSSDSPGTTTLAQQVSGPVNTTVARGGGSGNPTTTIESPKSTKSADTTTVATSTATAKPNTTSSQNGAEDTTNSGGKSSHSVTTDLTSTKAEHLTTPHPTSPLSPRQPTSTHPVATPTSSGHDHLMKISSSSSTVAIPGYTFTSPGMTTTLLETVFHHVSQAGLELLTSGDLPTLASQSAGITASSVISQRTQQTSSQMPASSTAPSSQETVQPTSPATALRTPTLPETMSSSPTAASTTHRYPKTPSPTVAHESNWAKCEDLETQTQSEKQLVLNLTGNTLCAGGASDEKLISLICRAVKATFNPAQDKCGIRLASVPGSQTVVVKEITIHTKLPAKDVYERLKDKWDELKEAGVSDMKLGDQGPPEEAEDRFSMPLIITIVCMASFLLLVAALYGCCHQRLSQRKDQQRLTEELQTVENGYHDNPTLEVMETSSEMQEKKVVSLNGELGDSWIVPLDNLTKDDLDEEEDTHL
UniProt Q8WVV4: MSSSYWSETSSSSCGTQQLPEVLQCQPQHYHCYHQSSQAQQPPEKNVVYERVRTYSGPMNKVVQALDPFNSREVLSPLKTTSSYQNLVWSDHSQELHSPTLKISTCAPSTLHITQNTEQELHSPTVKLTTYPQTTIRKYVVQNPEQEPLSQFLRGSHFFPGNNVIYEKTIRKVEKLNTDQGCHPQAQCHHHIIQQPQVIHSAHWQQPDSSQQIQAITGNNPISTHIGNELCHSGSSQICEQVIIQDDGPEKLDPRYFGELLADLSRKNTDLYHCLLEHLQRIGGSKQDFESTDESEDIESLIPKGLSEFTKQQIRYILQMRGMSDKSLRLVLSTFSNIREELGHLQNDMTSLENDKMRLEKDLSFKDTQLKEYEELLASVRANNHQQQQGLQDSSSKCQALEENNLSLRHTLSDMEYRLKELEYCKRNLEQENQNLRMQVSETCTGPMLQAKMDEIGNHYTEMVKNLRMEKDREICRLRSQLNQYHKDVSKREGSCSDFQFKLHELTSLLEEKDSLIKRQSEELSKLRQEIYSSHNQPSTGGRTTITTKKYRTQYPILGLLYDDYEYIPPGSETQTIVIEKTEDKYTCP
UniProt Q8IY26: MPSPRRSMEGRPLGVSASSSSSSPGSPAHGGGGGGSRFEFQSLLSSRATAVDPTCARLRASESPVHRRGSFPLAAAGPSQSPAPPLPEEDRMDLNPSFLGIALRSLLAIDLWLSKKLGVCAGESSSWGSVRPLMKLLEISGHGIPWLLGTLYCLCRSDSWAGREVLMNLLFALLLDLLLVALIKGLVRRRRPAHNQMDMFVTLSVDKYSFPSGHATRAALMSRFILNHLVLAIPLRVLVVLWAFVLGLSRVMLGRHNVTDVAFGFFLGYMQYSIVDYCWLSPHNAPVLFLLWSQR
UniProt P29590: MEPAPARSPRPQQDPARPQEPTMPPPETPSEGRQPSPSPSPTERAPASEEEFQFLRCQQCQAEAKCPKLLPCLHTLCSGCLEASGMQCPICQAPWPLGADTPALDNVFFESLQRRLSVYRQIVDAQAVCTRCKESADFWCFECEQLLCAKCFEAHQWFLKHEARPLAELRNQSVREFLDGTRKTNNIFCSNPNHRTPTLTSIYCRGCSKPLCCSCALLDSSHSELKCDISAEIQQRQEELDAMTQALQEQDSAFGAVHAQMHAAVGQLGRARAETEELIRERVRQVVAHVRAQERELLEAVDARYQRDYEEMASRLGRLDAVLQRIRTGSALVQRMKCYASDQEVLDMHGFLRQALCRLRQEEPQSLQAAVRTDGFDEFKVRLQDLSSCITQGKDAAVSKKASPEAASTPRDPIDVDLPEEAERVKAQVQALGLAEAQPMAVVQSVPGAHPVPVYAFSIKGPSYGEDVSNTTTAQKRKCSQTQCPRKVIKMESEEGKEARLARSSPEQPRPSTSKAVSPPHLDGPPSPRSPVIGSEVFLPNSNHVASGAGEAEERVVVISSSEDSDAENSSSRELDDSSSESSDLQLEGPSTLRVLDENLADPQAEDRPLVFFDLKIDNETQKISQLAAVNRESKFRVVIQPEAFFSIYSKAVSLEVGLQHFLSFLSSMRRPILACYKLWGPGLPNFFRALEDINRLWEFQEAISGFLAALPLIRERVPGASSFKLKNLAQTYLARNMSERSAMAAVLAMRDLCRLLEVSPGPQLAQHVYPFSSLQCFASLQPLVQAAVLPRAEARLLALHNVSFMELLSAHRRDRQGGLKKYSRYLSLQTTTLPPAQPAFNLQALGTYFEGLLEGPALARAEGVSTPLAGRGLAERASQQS
UniProt P45877: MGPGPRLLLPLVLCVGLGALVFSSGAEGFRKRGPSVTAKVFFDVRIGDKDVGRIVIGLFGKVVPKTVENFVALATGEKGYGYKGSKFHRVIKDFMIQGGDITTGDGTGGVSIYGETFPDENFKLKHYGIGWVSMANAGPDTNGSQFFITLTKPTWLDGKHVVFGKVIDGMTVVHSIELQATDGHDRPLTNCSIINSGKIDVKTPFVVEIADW
UniProt P62937, whole entry, looked up: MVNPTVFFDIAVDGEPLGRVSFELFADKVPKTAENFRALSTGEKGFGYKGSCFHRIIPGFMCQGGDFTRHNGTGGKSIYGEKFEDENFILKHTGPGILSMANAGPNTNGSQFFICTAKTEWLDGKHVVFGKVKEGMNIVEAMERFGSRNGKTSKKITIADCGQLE
UniProt Q92871: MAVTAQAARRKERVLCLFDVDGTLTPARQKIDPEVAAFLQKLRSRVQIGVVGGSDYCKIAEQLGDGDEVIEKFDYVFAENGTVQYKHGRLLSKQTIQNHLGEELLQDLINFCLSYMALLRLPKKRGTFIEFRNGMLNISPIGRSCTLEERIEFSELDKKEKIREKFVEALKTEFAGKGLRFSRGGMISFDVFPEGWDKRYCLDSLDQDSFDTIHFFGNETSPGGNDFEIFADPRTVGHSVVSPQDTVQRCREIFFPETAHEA
UniProt Q9HBL7: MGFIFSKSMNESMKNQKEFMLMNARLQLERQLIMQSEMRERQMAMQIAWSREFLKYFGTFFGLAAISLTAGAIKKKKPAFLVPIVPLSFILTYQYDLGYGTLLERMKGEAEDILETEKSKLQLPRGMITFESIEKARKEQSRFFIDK
UniProt Q9Y6A1: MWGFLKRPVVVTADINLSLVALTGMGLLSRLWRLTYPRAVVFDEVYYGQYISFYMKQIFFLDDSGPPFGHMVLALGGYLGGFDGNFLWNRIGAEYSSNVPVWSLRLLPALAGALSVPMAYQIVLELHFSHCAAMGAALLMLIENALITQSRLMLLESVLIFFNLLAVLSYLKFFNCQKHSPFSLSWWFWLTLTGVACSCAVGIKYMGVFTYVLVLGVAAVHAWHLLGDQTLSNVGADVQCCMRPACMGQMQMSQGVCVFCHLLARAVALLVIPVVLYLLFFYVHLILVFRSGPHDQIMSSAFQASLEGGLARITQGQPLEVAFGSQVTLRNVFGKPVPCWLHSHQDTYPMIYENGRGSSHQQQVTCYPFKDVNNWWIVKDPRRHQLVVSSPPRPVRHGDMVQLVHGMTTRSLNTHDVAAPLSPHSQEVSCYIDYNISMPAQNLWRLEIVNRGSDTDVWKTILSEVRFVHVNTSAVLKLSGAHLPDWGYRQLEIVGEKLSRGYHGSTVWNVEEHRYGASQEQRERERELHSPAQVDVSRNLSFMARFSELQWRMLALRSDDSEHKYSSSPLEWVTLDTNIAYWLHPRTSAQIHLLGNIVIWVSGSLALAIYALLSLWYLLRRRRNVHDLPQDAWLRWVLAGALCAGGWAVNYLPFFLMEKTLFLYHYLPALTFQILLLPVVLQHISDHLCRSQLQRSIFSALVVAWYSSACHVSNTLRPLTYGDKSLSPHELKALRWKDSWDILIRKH
UniProt Q9NW61: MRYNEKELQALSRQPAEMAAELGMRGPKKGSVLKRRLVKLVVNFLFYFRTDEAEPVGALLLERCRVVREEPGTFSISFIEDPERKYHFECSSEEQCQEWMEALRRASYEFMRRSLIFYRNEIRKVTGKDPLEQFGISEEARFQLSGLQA

How the values were obtained:
Experiment in all cases: log2 fold change, soluble protein after heating vs DMSO (PISA); higher = thermal stabilisation; K562 lysate, 10 uM; active = over 0.2 and 3.5 SD of the protein, either way, in both replicates (recomputed)
[1] = compound: CCn1c(C(=O)N(C2CC2)C2CC2)cc2c3c(ncn3C)c(Nc3cc(C)n(C)n3)nc21
Procedure, shortened: (§1)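 To prepare the extract, K562 pellets were dounce-homogenised in PBS pH 7.4 with 1 mM MgCl2, giving crude material at 1 mg/mL protein. This was treated with 10 μM compound for 30 min, then heated in aliquots for 3 min over 48°C-58°C before pooling and addition of NP-40 to 0.5% at 4°C. Centrifugation at 21,000xg for 90 min left soluble protein in the supernatant, which TMTpro 16plex LC-MS/MS quantified with equalised channel sums. Results are log-two fold changes in thermal stability compared with solvent controls, from duplicates.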

vemurafenib = compound: CCCS(=O)(=O)Nc1ccc(F)c(C(=O)c2c[nH]c3ncc(-c4ccc(Cl)cc4)cc23)c1F [vemurafenib]
Procedure, shortened: as §1

[2] = compound: CCCS(=O)(=O)Nc1ccc(F)c(C(=O)c2c[nH]c3ncc(Cl)cc23)c1F
Procedure, shortened: as §1

[3] = compound: CC[C@@H]1C(=O)N(C)c2cnc(Nc3ccc(C(=O)NC4CCN(C)CC4)cc3OC)nc2N1C1CCCC1
Procedure, shortened: as §1

volasertib = compound: CC[C@@H]1C(=O)N(C)c2cnc(Nc3ccc(C(=O)N[C@H]4CC[C@H](N5CCN(CC6CC6)CC5)CC4)cc3OC)nc2N1C(C)C [volasertib]
Procedure, shortened: as §1

[4] = compound: CCn1cc(-c2ccnc3[nH]c(-c4cccc(CN(C)C)c4)cc23)c(-c2ccc(NC(=O)N(C)C)cc2)n1
Procedure, shortened: as §1

[5] = compound: CN1CCC(CNc2ccc3ncc(-c4cccc(OC(F)(F)F)c4)n3n2)CC1
Procedure, shortened: as §1

sotrastaurin = compound: CN1CCN(c2nc(C3=C(c4c[nH]c5ccccc45)C(=O)NC3=O)c3ccccc3n2)CC1 [sotrastaurin]
Procedure, shortened: as §1

barasertib = compound: CCN(CCCOc1ccc2c(Nc3cc(CC(=O)Nc4cccc(F)c4)[nH]n3)ncnc2c1)CCOP(=O)(O)O [barasertib]
Procedure, shortened: as §1

saracatinib = compound: CN1CCN(CCOc2cc(OC3CCOCC3)c3c(Nc4c(Cl)ccc5c4OCO5)ncnc3c2)CC1 [saracatinib]
Procedure, shortened: as §1

Measured: log2 fold change

POU6F1, A0A1C7CYV8
inactive: [1] -0.029

POC1A (UniProt Q8NBT0)
inactive: vemurafenib -0.155 | [2] 0.128 | [3] -0.268 | volasertib -0.277 | [4] 0.177 | [5] 0.263 | sotrastaurin 0.122

PMS1 (UniProt P54277)
inactive: vemurafenib 0.037 | barasertib 0.193 | [3] 0.019 | [1] -0.028 | [4] -0.01 | [5] -0.051 | saracatinib 0.016 | sotrastaurin -0.002

POM121C (UniProt A8CG34)
inactive: [2] -0.037 | barasertib 0.201 | volasertib -0.101 | [1] 0.045 | [4] 0.146 | [5] 0.158

PLTP (UniProt P55058)
inactive: vemurafenib 0.095 | [1] 0.035 | [4] 0.317 | [5] -0.176 | saracatinib 0.073

POTEKP (UniProt Q9BYX7)
inactive: [2] 0.224 | barasertib 0.772 | volasertib -0.083 | [1] 0.973 | saracatinib 0.049 | sotrastaurin -0.171

PNMA8A (UniProt Q86V59)
inactive: [2] 0.223 | barasertib 0.052 | [3] 0.102 | volasertib 0.184 | [1] -0.003 | saracatinib 0.004

POLI (UniProt Q9UNA4)
inactive: sotrastaurin 0.183

PPARGC1B (UniProt Q86YN6)
inactive: [1] 0.081

PMS2CL (UniProt Q68D20)
inactive: [2] 0.178 | barasertib -0.069 | volasertib -0.039 | [1] -0.06 | sotrastaurin -0.008

POSTN (UniProt Q15063)
inactive: vemurafenib -0.091 | barasertib -0.012 | [3] 0.088 | [1] -0.029 | [4] 0.073 | [5] -0.046 | sotrastaurin -0.042

POLG2 (UniProt J3KRM2)
inactive: [2] 0.163 | barasertib 0.084 | volasertib -0.048

POLR2F (UniProt U3KPV3)
inactive: [3] 0.13 | saracatinib -0.051

PLEKHM1 (UniProt Q9Y4G2)
inactive: vemurafenib -0.062 | [3] -0.149 | [1] -0.023 | sotrastaurin 0.011

PLEKHG4 (UniProt Q58EX7)
inactive: vemurafenib -0.019 | [3] 0.015 | [1] 0.049 | [4] 0.052 | [5] 0.019 | saracatinib 0.024 | sotrastaurin 0.036

PPHLN1 isoform 3 (UniProt Q8NEY8)
inactive: vemurafenib -0.144 | [1] -0.175

PNMT (UniProt P11086)
inactive: vemurafenib 0.161 | [2] 0.121 | volasertib 0.017 | [1] 0.099 | sotrastaurin -0.028

Quoted at random: 2 records from the list.
PLEKHM1 (UniProt Q9Y4G2)
inactive: vemurafenib -0.062 | [3] -0.149 | [1] -0.023 | sotrastaurin 0.011

PPHLN1 isoform 3 (UniProt Q8NEY8)
inactive: vemurafenib -0.144 | [1] -0.175

The listing continues.

PLXNB1 (UniProt O43157)
inactive: [1] 0.095 | saracatinib -0.055 | sotrastaurin -0.014

PPFIBP1 (UniProt Q86W92)
inactive: [3] -0.115 | sotrastaurin 0.033

POLR2J (UniProt P52435)
inactive: [2] -0.002 | barasertib 0.057 | [3] 0.029 | volasertib -0.027 | [1] 0.065 | saracatinib 0.002 | sotrastaurin -0.02

PODXL (UniProt O00592)
inactive: [4] -0.016 | [5] 0.015

POF1B isoform 1 (UniProt Q8WVV4)
inactive: [4] 0.313 | [5] -0.172 | saracatinib -0.021

PLOD2 isoform 2 (UniProt O00469)
inactive: vemurafenib -0.037 | barasertib 0.203 | [3] -0.925 | saracatinib 0.273

PLPP6 (UniProt Q8IY26)
inactive: vemurafenib 0.094 | [1] 0.041 | [4] 0.011 | [5] -0.071 | saracatinib 0.07 | sotrastaurin 0.003

PML isoform 11 (UniProt P29590)
inactive: vemurafenib 0.078 | [3] -0.026 | [4] -0.083 | [5] -0.095 | saracatinib -0.088

POMK (UniProt Q9H5K3)
inactive: vemurafenib 0.06 | barasertib 0.063 | [3] 0.016 | [1] 0.082 | [4] 0.037 | [5] -0.083 | saracatinib -0.004 | sotrastaurin 0.076

PPFIBP2 (UniProt Q8ND30)
inactive: [3] -0.049 | [4] 0.051 | [5] 0.068

PPIC (UniProt P45877)
inactive: vemurafenib -0.009 | barasertib 0.203 | [1] 0.078 | [4] -0.112 | [5] 0.124 | saracatinib -0.004
active: sotrastaurin -0.453

PPIA isoform 2 (UniProt P62937)
inactive: barasertib -0.024

PMM1 (UniProt Q92871)
inactive: vemurafenib -0.022 | barasertib -0.027 | [3] -0.01 | [1] 0.031 | [4] -0.051 | [5] 0.077 | saracatinib 0.066 | sotrastaurin 0

PLGRKT (UniProt Q9HBL7)
inactive: vemurafenib 0.162 | barasertib 0.089 | [3] 0.139 | [1] -0.004 | saracatinib -0.054 | sotrastaurin 0.212

POLR2K (UniProt P53803)
inactive: vemurafenib -0.074 | barasertib 0.094 | [3] -0.158 | [1] 0.043 | [4] -0.049 | [5] 0.08 | saracatinib 0.008 | sotrastaurin 0.037

POMT1 (UniProt Q9Y6A1)
inactive: [2] -0.079 | volasertib -0.018 | saracatinib 0.15

PPHLN1 (UniProt Q8NEY8)
inactive: vemurafenib -0.024 | [2] 0.043 | [3] 0.081 | volasertib -0.045 | [4] 0.124 | [5] -0.046 | sotrastaurin -0.008

POC1B (UniProt Q8TC44)
inactive: vemurafenib -0.347 | [3] 0.149 | [1] 0.043 | saracatinib 0.144

PNPLA4 (UniProt P41247)
inactive: vemurafenib 0.098 | [3] 0.002 | [1] -0.111 | [4] 0.165 | [5] 0.414 | saracatinib 0.009 | sotrastaurin -0.013

PLEKHJ1 (UniProt Q9NW61)
inactive: [1] 0.106 | [4] -0.132 | [5] -0.04 | sotrastaurin 0.027

PLXND1 (UniProt Q9Y4D7)
inactive: barasertib 0.045 | [1] -0.214 | saracatinib 0.018 | sotrastaurin 0.012
